Measured data: PubChem BioAssay AID1259272 (Sanger Institute, 2017)
The deposit covers 794 reagents; this is a part drawn at random. 7 of them (0.88%) were called active. 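Essential calls reflect knock-down without drug only, not synergy with drugs; drug exposure length not given.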 Unmarked entries are inactive. Viability is capped at 1. Not all columns of the deposit are shown. The record does not give: the amount of reagent, the time to read-out.

Assay: 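Kinome-wide siRNA search for genes whose silencing boosts targeted drug effects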 (primary screen)
System: SW1116 human colorectal cancer cells
Knock-down reagent: siRNA pool against human genes
Conditions: anchor drugs BYL719 (1 µM), cetuximab (5 µg/ml) or trametinib (10 nM), or DMSO vehicle; exposure length not given
Read-out: 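Cell survival as a fraction of wells given a non-targeting pool, averaged over replicates; robust z-score without drug; synergy score for each of BYL719, cetuximab and trametinib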
Scale: viability z-score, no drug: higher = more cells remaining; strongly negative means essential gene; viability, no drug: higher = more viable cells
Units: viability, no drug in fraction of control
Active means: 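a robust z-score under -3 with siRNA and no drug marks the gene essential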
Calls: active = essential (knock-down alone); inactive = no change

TSSK1B [SID56478967]
- viability z-score, no drug: 0.695
- viability, no drug: 0.984

MYLK3 [SID152154935]
- viability z-score, no drug: -0.158
- viability, no drug: 0.893

ETNK2 [SID56478982]
- viability z-score, no drug: -1.15
- viability, no drug: 0.788

RPS6KA4 [SID152147672]
- viability z-score, no drug: 0.842
- viability, no drug: 1

MOK [SID56478889]
- viability z-score, no drug: 0.842
- viability, no drug: 1

NR2F2 [SID134309873]
- viability z-score, no drug: -0.893
- viability, no drug: 0.815

TP53RK [SID135620611]
- viability z-score, no drug: -0.405
- viability, no drug: 0.867

NEK5 [SID135624240]
- viability z-score, no drug: 0.842
- viability, no drug: 1

PRKX [SID152149946]
- viability z-score, no drug: 0.722
- viability, no drug: 0.987

VRK1 [SID152147475]
- viability z-score, no drug: 0.842
- viability, no drug: 1

CHD9 [SID152154196]
- viability z-score, no drug: 0.842
- viability, no drug: 1

EPHA3 [SID152156000]
- viability z-score, no drug: 0.842
- viability, no drug: 1

PRAG1 [SID152147410]
- viability z-score, no drug: -2.45
- viability, no drug: 0.649

CAMK1 [SID56478929]
- viability z-score, no drug: 0.315
- viability, no drug: 0.944

ROR2 [SID56478550]
- viability z-score, no drug: 0.287
- viability, no drug: 0.941

ANKK1 [SID56478922]
- viability z-score, no drug: 0.842
- viability, no drug: 1

HSPB8 [SID56478941]
- viability z-score, no drug: -0.234
- viability, no drug: 0.885

STK16 [SID152154415]
- viability z-score, no drug: 0.842
- viability, no drug: 1

TSSK4 [SID56478999]
- viability z-score, no drug: 0.842
- viability, no drug: 1

GTF2H1 [SID56479243]
- viability z-score, no drug: -0.857
- viability, no drug: 0.819

STK38L [SID152156064]
- viability z-score, no drug: 0.715
- viability, no drug: 0.986

DGKK [SID135624472]
- viability z-score, no drug: 0.842
- viability, no drug: 1

EFNB3 [SID134315611]
- viability z-score, no drug: -1.79
- viability, no drug: 0.72

NAGK [SID135621243]
- viability z-score, no drug: -1.06
- viability, no drug: 0.797

PRKAR1A [SID135621428]
- viability z-score, no drug: 0.842
- viability, no drug: 1

EIF2AK1 [SID56478942]
- viability z-score, no drug: 0.842
- viability, no drug: 1

CLSPN [SID134310856]
- viability z-score, no drug: -0.346
- viability, no drug: 0.873

RIPK4 [SID135620968]
- viability z-score, no drug: 0.842
- viability, no drug: 1
